The list shows a part of the results. Shown are side measurements of this screen, not its main read-out; they come without a call. Most of these compounds were active or inconclusive in the main read-out, so they are no random draw. The note in brackets gives the kind of curve behind each potency; many fits are weak.
Test: IkB Signaling
Details: ABC-DLBCL IkBa-CBG/CBR dual luciferase ratio (green luciferase fused to IkBa over red control in OCI-Ly3 lymphoma cells), 4 h; measured here: control luc red channel unless noted
Method in brief: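 In this assay, an IκBα–CBG68 fusion accumulates when IKK-driven degradation is blocked; native CBR normalizes for cell number. OCI-Ly3 cells were treated 4 h with compound and doxycycline, then green and red light read after Chroma-Glo addition.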

Q: Which AC50 does the source give for `Cc1nc2cc(-c3cccc(F)c3)nn2c(C)c1CCC(=O)NCCc1ccccc1` here?
A: 3.98 µM [falling, partial curve]

Q: With `Cn1c(=O)c2sccc2n2c(CCCC(=O)Nc3ccc(Oc4ccccc4)cc3)nnc12` as the compound, how does the AC50 read?
A: 20 µM [falling, partial curve]

Q: For `CCOC(=O)COc1ccc(-c2nnn(CC(=O)Nc3ccccc3)n2)cc1`, which AC50 is on record?
A: 12.6 µM [falling, partial curve]

Q: With `O=C1CSC(c2cn(-c3ccccc3)nc2-c2ccccc2)N1Cc1ccco1` (stereo unspecified) as the compound, how does the AC50 read?
A: 15.8 µM [falling, partial curve]

Q: With `COc1ccc(-c2noc(CC(=O)N(C)c3cccc(C)c3)n2)cc1` as the compound, how does the AC50 read?
A: 20 µM [falling, single point]

Q: For `CCOC(=O)c1cnc2ccc(Br)cc2c1NCCN1CCOCC1`, which AC50 is on record?
A: 25.1 µM [falling, partial curve]

Q: For `Cc1ccc(N2CC(NC(=O)c3ccccc3C(F)(F)F)CC2=O)cc1C` (stereo unspecified), which AC50 is on record?
A: 2.51 µM [rising, single point]

Q: With `COc1ccc(NC(=O)CSc2oc(-c3cccs3)nc2S(=O)(=O)c2ccccc2)c(OC)c1` as the compound, how does the AC50 read?
A: 7.94 µM [falling, full curve]

Q: For `O=C(Nc1ccc(C(=O)OCc2cc(=O)n3nc(C4CC4)sc3n2)cc1)c1ccccc1`, which AC50 is on record?
A: 25.1 µM [rising, partial curve]

Q: With `OC1CCN(c2c3c(nc4cc(-c5cccc(F)c5)nn24)CCCC3)CC1` as the compound, how does the AC50 read?
A: 31.6 µM [falling, partial curve]

Q: For `Fc1ccc2nc(N3CCCCC3)sc2c1`, which AC50 is on record?
A: 1 µM [rising, partial curve]

Q: Which AC50 does the source give for `COc1cccc(CNC(=O)C2CCCN(S(=O)(=O)N(C)c3ccc(F)cc3)C2)c1OC` (stereo unspecified) here?
A: 20 µM [falling, partial curve]

Q: With `Cc1cccc(NC(=O)CSC2=Nc3ccccc3C3=NC(CC(=O)NCc4cccs4)C(=O)N23)c1` (stereo unspecified) as the compound, how does the AC50 read?
A: 15.8 µM [falling, partial curve, poor fit]

Q: With `COc1ccc(CNC(=O)CCCn2nc(C)n3c(cc4sccc43)c2=O)cc1` as the compound, how does the AC50 read?
A: 39.8 µM [falling, single point]

Q: Which AC50 does the source give for `O=C(COc1ccccc1)Nc1nnc(S(=O)(=O)Nc2ccccc2)s1` here?
A: 1 µM [rising, full curve]

Q: For `CCOc1ccccc1C1C(C(=O)Nc2ccccc2)=C(C)Nc2nc(SCC(=O)c3ccc(C)cc3)nn21` (stereo unspecified), which AC50 is on record?
A: 20 µM [falling, partial curve, poor fit]

Q: For `CCCCNC(=O)c1nnn(-c2ccccc2)c1N`, which AC50 is on record?
A: 15.8 µM [falling, partial curve]

Q: With `CN(C(=O)CSc1nc(-c2ccccc2)no1)c1ccc(F)cc1` as the compound, how does the AC50 read?
A: 1.26 µM [falling, full curve]

Q: For `COc1ccc(C(=O)c2sc3nc4c(c(C(F)(F)F)c3c2N)CN(C(C)=O)CC4)cc1OC`, which AC50 is on record?
A: 1.26 µM [rising, partial curve]

Q: Which AC50 does the source give for `Cc1onc(-c2ccccc2Cl)c1C(=O)OCn1nnc2ccccc2c1=O` here?
A: 1 µM [falling, partial curve]

Q: Which AC50 does the source give for `CCOc1ccccc1NC(=O)Nc1nnc(N2CCCC(C)C2)s1` (stereo unspecified) here?
A: 10 µM [falling, partial curve]

Q: For `Cc1cccc2cc(CN(Cc3cccs3)Cc3nnnn3Cc3ccccc3)c(=O)[nH]c12`, which AC50 is on record?
A: 7.94 µM [falling, partial curve]

Q: With `Cc1ccc(-c2nnc(Nc3cccc(Cl)c3)c3ccccc23)cc1S(=O)(=O)N1CCN(C)CC1` as the compound, how does the AC50 read?
A: 10 µM [falling, partial curve]

Q: For `CCN(Cc1ccccc1)c1ncnc2c1cnn2-c1ccc(F)cc1`, which AC50 is on record?
A: 39.8 µM [falling, single point]

Q: Which AC50 does the source give for `COc1ccc(NC(=O)C2CCCN(c3ncnc4onc(C)c34)C2)cc1OC` (stereo unspecified) here?
A: 0.2 µM [rising, full curve]

Q: For `Cc1ccc(Cn2c(SCc3ccc(C(=O)N4CCCCC4)cc3)nc3ccncc32)cc1`, which AC50 is on record?
A: 25.1 µM [falling, partial curve]

Q: For `CCC(=O)OC1=C(C(C)=O)N(Cc2ccccc2)S(=O)(=O)c2ccccc21`, which AC50 is on record?
A: 25.1 µM [falling, partial curve]

Q: For `COC(=O)C1=C(C)N(c2ccc(OC)c(OC)c2)C(=O)C1`, which AC50 is on record?
A: 39.8 µM [falling, single point]

Q: With `COc1ccc(-c2cc(C(=O)N3CCCCC3C)no2)cc1OC` (stereo unspecified) as the compound, how does the AC50 read?
A: 3.98 µM [rising, single point]

Q: For `COc1ccccc1CNC(=O)C(=O)NCC(c1ccco1)S(=O)(=O)c1ccc(C)cc1` (stereo unspecified), which AC50 is on record?
A: 20 µM [falling, single point]

Q: With `CCCCCn1c(CCCNC(=O)c2ccc(Cl)cc2)nc2ccccc21` as the compound, how does the AC50 read?
A: 25.1 µM [falling, partial curve]

Q: With `COc1ccc(-c2nc(C(=O)Nc3cccc(C(C)=O)c3)nn2-c2ccccc2Cl)cc1` as the compound, how does the AC50 read?
A: 10 µM [falling, partial curve]

Q: For `CCOc1cc(-c2nc(-c3ccc(-c4ccccc4)nc3OCC)no2)cc(OCC)c1OCC`, which AC50 is on record?
A: 39.8 µM [falling, single point]

Q: With `Cc1nnc2sc(-c3cccc(NC(=O)c4ccc(-c5cccc(Cl)c5)o4)c3)nn12` as the compound, how does the AC50 read?
A: 7.94 µM [falling, full curve, poor fit]

Q: Which AC50 does the source give for `O=C(NCc1ccccc1Cl)c1ccccc1NC(=O)c1nsc2ccccc12` here?
A: 25.1 µM [falling, partial curve]

Q: Which AC50 does the source give for `COCCCNC(=O)c1cc2c(-c3cccc(OC)c3)nn(C)c2s1` here?
A: 5.01 µM [falling, partial curve]

Q: Which AC50 does the source give for `O=C(CSc1nccn1Cc1ccc(Cl)cc1)Nc1nc2ccccc2s1` here?
A: 31.6 µM [falling, partial curve, poor fit]

Q: For `COc1ccccc1-c1cn(S(=O)(=O)c2ccc(F)cc2)nc1N`, which AC50 is on record?
A: 3.98 µM [falling, full curve]

Q: With `CCc1ccc(NC(=O)c2cc(S(=O)(=O)N3CCCC(C)C3)cn2C)cc1` (stereo unspecified) as the compound, how does the AC50 read?
A: 12.6 µM [falling, partial curve]

Q: With `CCOc1ccc(CNC(=O)C2CCN(C(=O)c3ccc(-n4ccc5ccccc54)s3)CC2)cc1` as the compound, how does the AC50 read?
A: 25.1 µM [falling, single point]

Q: Which AC50 does the source give for `Cc1cccc(NC(=O)Cn2c(=O)n(CCCCCC(=O)NCc3ccccc3)c(=O)c3sccc32)c1` here?
A: 10 µM [falling, partial curve]

Reference: PubChem BioAssay AID445 (National Center for Advancing Translational Sciences (NCATS), 2006)
